In PubChem BioAssay AID2551 (National Center for Advancing Translational Sciences (NCATS), 2010):
About 17,000 (5.5%) of roughly 310,000 compounds were called active. This list was built around the results that the source calls inconclusive (neither active nor inactive); the mix of calls is not that of the screen. Calls follow the shape of the dose curve; as a rule, active = well fitted inhibition curve with a large enough effect; inconclusive = small, poorly fitted or top-dose-only effect, or effect the other way; inactive = no such curve, though single readings can be large or run the other way. A potency beside an inconclusive call is a rough fit, not a confirmed value.

Sequences of proteins named here, by UniProt entry; tags and fusion partners are left off. A change or cut given only in a name is not applied to a line headed by its entry.
UniProt P51450: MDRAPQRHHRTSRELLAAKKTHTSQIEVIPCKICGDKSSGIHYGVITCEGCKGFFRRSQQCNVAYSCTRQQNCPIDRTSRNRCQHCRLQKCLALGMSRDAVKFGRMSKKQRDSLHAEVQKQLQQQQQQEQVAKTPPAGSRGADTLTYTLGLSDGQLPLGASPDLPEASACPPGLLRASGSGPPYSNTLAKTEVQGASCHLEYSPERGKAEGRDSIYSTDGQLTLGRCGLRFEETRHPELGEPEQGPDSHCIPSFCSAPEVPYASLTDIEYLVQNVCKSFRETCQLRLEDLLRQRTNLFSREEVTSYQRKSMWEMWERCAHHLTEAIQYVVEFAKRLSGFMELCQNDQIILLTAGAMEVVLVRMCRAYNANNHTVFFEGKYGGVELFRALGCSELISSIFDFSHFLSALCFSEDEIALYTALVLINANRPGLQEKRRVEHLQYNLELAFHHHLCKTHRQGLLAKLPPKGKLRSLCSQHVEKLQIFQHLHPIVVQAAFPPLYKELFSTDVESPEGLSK

target: Nuclear receptor ROR-gamma (Mus musculus) (UniProt P51450); experiment: qHTS for inhibitors of ROR gamma transcriptional activity; conditions: Drosophila S2 Gal4-RORgamma UAS-luciferase reporter, 20 h; series mostly up to 53.6 µM; also: nearly all actives have a fitted effect of over 60% in size
In short: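 A Gal4/UAS one-hybrid system in insect cells: metallothionein-promoter Gal4–ROR gamma fusion plus Photinus luciferase reporter. Copper sulfate 700 uM final, 20 hr ambient incubation, luminescent detection after 10 min with reagent.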
Potency is read from the fitted curve at half-maximal effect.

Row | SMILES | Potency
1 | O=C(OCc1nnc(-c2ccccc2)o1)c1ccc(S(=O)(=O)NCc2ccco2)cc1 | inactive
2 | Fc1cc(Br)ccc1NC(=S)Nc1ccccc1 | inconclusive: 17.8 µM [inhibitor, single point]
3 | CN(C)S(=O)(=O)c1ccc(Oc2ccc(S(=O)(=O)N(C)C)cc2)cc1 | inconclusive: 0.631 µM [activator, full curve, poor fit]
4 | Cc1cc(C)n(CCc2nc(-c3ccc(C)o3)cs2)n1 | inconclusive: 5.62 µM [inhibitor, single point]
5 | COc1ccc(OC)c(C(=O)CN2CCN(S(=O)(=O)c3ccc(Br)cc3)CC2)c1 | inconclusive: 35.5 µM [inhibitor, single point]
6 | CNC(=O)Nc1ccc(Cn2cc(C(F)(F)F)ccc2=O)cc1 | inconclusive: 35.5 µM [inhibitor, single point]
7 | Cc1cc(C)nc(Nc2n[nH]c(-c3ccccc3Br)n2)n1 | active: 14.1 µM
8 | O=C(Oc1coc(CSc2ncccn2)cc1=O)c1cccs1 | inactive
9 | COc1ccc(Cl)c(NC(=O)Cn2nnc(-c3ccccc3N)n2)c1 | inconclusive: 0.708 µM [activator, full curve, poor fit]
10 | COc1ccc(F)cc1S(=O)(=O)Nc1ccncc1 | inconclusive: 0.1 µM [activator, single point]
11 | COc1ccc(-c2oc(NC(=O)CCl)c(C#N)c2-c2ccc(OC)cc2)cc1 | inconclusive: 12.6 µM [inhibitor, partial curve, poor fit]
12 | CCOC(=O)c1[nH]c2ccccc2c1NC(=S)Nc1ccccc1 | inconclusive: 25.1 µM [inhibitor, single point]
13 | CC(C)(C)c1ccc(C(=O)Nc2cccc([N+](=O)[O-])c2)cc1 | inconclusive: 12.6 µM [activator, single point]
14 | CN(c1cccc2cccnc12)S(=O)(=O)c1ccccc1 | inconclusive: 35.5 µM [inhibitor, single point]
15 | O=C(CCC1N=C2c3ccccc3N=C(SCc3ccc(Cl)cc3)N2C1=O)NCc1ccco1 (configuration not stated) | inconclusive: 12.6 µM [activator, partial curve]
16 | CCc1cccc(NC(=O)CCNC(=O)Cn2ccc3ccccc3c2=O)c1 | inconclusive: 11.2 µM [activator, partial curve]
17 | Cc1cc(C)cc(NC(=S)NCCc2ccc(S(N)(=O)=O)cc2)c1 | active: 10 µM
18 | CCOC(=O)C1CCN(C(=O)Cn2cnc3sc(C)c(S(=O)(=O)N4CCCCC4)c3c2=O)CC1 | inactive
19 | COc1ccc(C(=O)Nc2ccccc2C(=O)N/N=C/c2ccco2)cc1 | active: 2 µM
20 | COc1cccc(/C(O)=C2/C(=O)C(=O)N(CCN3CCOCC3)C2c2cccnc2)c1 (configuration not stated) | inactive
21 | Oc1ccc(/C=N/n2c(-c3ccccc3)n[nH]c2=S)cc1 | inconclusive: 20 µM [inhibitor, partial curve, poor fit]
22 | COc1ccc(Cn2c(-c3ccc(OC)cc3)nc3c(c(=O)c4ccccc4n3C)c2=O)cc1 | inactive
23 | Nc1ccccc1Oc1ncc(C(F)(F)F)cc1Cl | inconclusive: 35.5 µM [activator, single point]
24 | Cc1ccc(C)c(S(=O)(=O)NC(C)C(=O)Nc2ccc(-c3nc4ccccc4s3)cc2)c1 (configuration not stated) | inconclusive: 10 µM [activator, partial curve]

Quoted from the listing:
Potency with O=C(OCc1nnc(-c2ccccc2)o1)c1ccc(S(=O)(=O)NCc2ccco2)cc1 is entered as inactive
Potency with Cc1cc(C)n(CCc2nc(-c3ccc(C)o3)cs2)n1 is entered as inconclusive: 5.62 µM [inhibitor, single point]
Potency with Cc1cc(C)nc(Nc2n[nH]c(-c3ccccc3Br)n2)n1 is entered as active: 14.1 µM
Potency with CN(c1cccc2cccnc12)S(=O)(=O)c1ccccc1 is entered as inconclusive: 35.5 µM [inhibitor, single point]

Additional results follow.

Row | SMILES | Potency
25 | CC1Sc2ccc(C(=O)O)cc2NC1=O (configuration not stated) | inactive
26 | N#CCn1cnc2c(oc3ccccc32)c1=O | inactive
27 | COc1ccccc1C(=O)NCc1ccccc1 | inconclusive: 0.126 µM [inhibitor, single point]
28 | Cc1ccc(C(=O)CSc2ccc(-c3cccnc3)nn2)cc1 | active: 112 µM
29 | COc1ccc(CCNC(=O)C2CCN(C(=O)c3ccc(Cl)cc3)CC2)cc1 | inconclusive: 35.5 µM [activator, single point]
30 | Cc1cccc(/C(N)=N/OC(=O)c2ccco2)c1 | inconclusive: 35.5 µM [inhibitor, single point]
31 | Cc1cccc(C(=O)OC2CCOC2=O)c1C (configuration not stated) | inactive
32 | Cc1ccc(C(=O)NNC(=O)OC(C)(C)C)c(Cl)c1 | inconclusive: 3.55 µM [activator, partial curve]
33 | Cc1cc(CNC(=O)Cn2nc(C)c([N+](=O)[O-])c2C)c2ccccc2n1 | inactive
34 | Cc1cccc(NC(=O)c2ccc(N3CCCCC3)c([N+](=O)[O-])c2)n1 | inconclusive: 15.8 µM [inhibitor, single point]
35 | CN(c1ccc(C(=O)N2CCOCC2)cc1[N+](=O)[O-])C1CCCCC1 | inconclusive: 7.08 µM [activator, partial curve]
36 | CN(C)CCNC(=O)/C(=C/c1ccc(-c2cccc(Cl)c2)o1)NC(=O)c1ccccc1 | active: 3.16 µM
37 | CCOC(=O)c1c(C)[nH]c(C(=O)OC/C(O)=C(\C#N)c2nc3ccccc3[nH]2)c1C | inconclusive: 12.6 µM [inhibitor, partial curve, poor fit]
38 | CCN(CC)c1cccc(O)c1 | inactive
39 | CCOc1ccc(C(=O)c2cccs2)cc1 | inconclusive: 4.47 µM [activator, partial curve, poor fit]
40 | COC(=O)c1ccc(C2C(Oc3ccccc3)C(=O)N2CCc2ccc(F)cc2)cc1 (configuration not stated) | inconclusive: 25.1 µM [inhibitor, single point]
41 | CCN(CC)CCCNC(=O)c1cc2c(-c3ccc(Cl)cc3)nn(C)c2s1 | inconclusive: 11.2 µM [inhibitor, partial curve, poor fit]
42 | CC(=Nc1ccc(C)c(C)c1)C1=C(O)CSC1=O | inconclusive: 6.31 µM [activator, single point]
43 | COc1cc(C(=S)NCc2ccccc2)cc(Br)c1O | inactive
44 | CCCCc1ccc(S(=O)(=O)NNC(=S)NCc2ccco2)cc1 | active: 8.91 µM
45 | CCCCCc1c(C)nc(N2CCc3ccccc32)[nH]c1=O | inconclusive: 7.94 µM [activator, partial curve]
46 | COCC(=O)Nc1nc2ccc(C)cc2s1 | inconclusive: 10 µM [inhibitor, single point]
47 | CC(=O)N1c2ccc(S(=O)(=O)N3CCC(C(=O)N4CCN(c5cc(Cl)ccc5C)CC4)CC3)cc2CC1C (configuration not stated) | inactive
48 | O=C(Nc1ccc(S(=O)(=O)Nc2nccs2)cc1)c1cccc(N2C(=O)c3ccccc3C2=O)c1 | inactive

Row | SMILES | Potency
49 | CCN(CC)S(=O)(=O)c1cccc(NC(=O)COc2ccc(C#N)cc2OC)c1 | inconclusive: 12.6 µM [activator, partial curve]
50 | Clc1ccc(C2=Nn3c(Cn4nnc5ccccc54)nnc3SC2)cc1 | inconclusive: 20 µM [activator, single point]
51 | CCOc1ccc(S(=O)(=O)NCc2ccccc2Cl)cc1C(N)=O | inconclusive: 22.4 µM [activator, single point]
52 | CCOc1ccc(NC(=S)Nc2ccc(OC(F)(F)F)cc2)cc1 | inconclusive: 5.62 µM [inhibitor, partial curve, poor fit]
53 | COC(=O)c1[nH]nc2c1C(=O)N(Cc1ccccc1)C2=O | inconclusive: 11.2 µM [activator, single point]
54 | CCOc1ccc2nc(NC(=O)c3cnccn3)sc2c1 | active: 1.58 µM
55 | CCOC(=O)C1=C(CNC2CCCCC2)NC(=O)NC1c1cc(C)ccc1C (configuration not stated) | inconclusive: 17.8 µM [inhibitor, single point]
56 | O=c1cc(O)c2sc(Nc3cccc(C(F)(F)F)c3)nc2[nH]1 | inactive
57 | CCOC(=O)c1c(NC(=O)CSc2nnc(-c3c[nH]c4ccccc34)n2CCOC)sc2c1CCCCC2 | inconclusive: 31.6 µM [activator, single point]
58 | c1ccc2sc(-c3ccc4c(c3)OCO4)nc2c1 | inconclusive: 12.6 µM [inhibitor, single point]
59 | COc1cc(NC(=O)CSc2nnnn2Cc2ccc3c(c2)OCO3)cc(OC)c1 | inconclusive: 3.55 µM [inhibitor, single point]
60 | COc1cc(N2CCCC2)c(OC)cc1C=O | inconclusive: 35.5 µM [inhibitor, single point]
61 | CCCCCCC1CC(=O)NC(=S)N1 (configuration not stated) | active: 8.91 µM
62 | O=C(CN1CCN(S(=O)(=O)c2ccc(Br)cc2)CC1)Nc1ccc(F)cc1 | inconclusive: 15.8 µM [activator, single point]
63 | CN(Cc1ccc(F)cc1)C(=O)c1cc(COc2ccc(F)cc2F)on1 | inconclusive: 12.6 µM [activator, partial curve, poor fit]
64 | COc1ccc(CCNC(=O)CCNC(=O)N2CC(=O)Nc3ccccc32)cc1 | inactive
65 | O=C(CSc1ccc(-c2ccco2)nn1)N1CCCC1 | inactive
66 | O=C(NCC1CCCO1)c1cc(C(=O)c2ccc(Cl)cc2Cl)c[nH]1 (configuration not stated) | inconclusive: 25.1 µM [activator, single point]
67 | CCOc1ccc2c(c1)c(=O)c(S(=O)(=O)c1ccc(C)cc1)cn2CC | inactive
68 | CCOc1ccc(S(=O)(=O)N2CCCCC2)c(C)c1C | inconclusive: 35.5 µM [activator, single point]
69 | CN(C)c1ccc(/C=N/n2c(C3CCCCC3)n[nH]c2=S)cc1 | active: 2.51 µM
70 | CC12CCC(C(=O)N(CSC(=S)N/N=C\c3ccccc3Cl)C1=O)C2(C)C (configuration not stated) | inconclusive: 3.55 µM [inhibitor, single point]
71 | COc1ccc(-c2cc(C)no2)cc1S(=O)(=O)N(C)c1cccc(C)c1 | inactive
72 | O=C1[C@@H]2Cc3c([nH]c4ccccc34)C(c3ccc(Cl)cc3)N2C(=O)CN1CCO (some centres not stated) | inconclusive: 6.31 µM [activator, partial curve]
